From PubChem BioAssay AID2685 (National Center for Advancing Translational Sciences (NCATS), 2010)
The whole screen tested about 320,000 compounds, of which about 2,100 (0.66%) were called active. Inconclusive results, whose numbers are uncertain, are shown with a selection of clear calls. Calls come from the whole dose curve; as a rule, active = well fitted inhibition curve with a large enough effect in the signal ratio, with a control signal flat (not every such curve was filed as active); inconclusive = small, poorly fitted or top-dose-only effect, or effect the other way, or a change in a side signal; inactive = flat fitted curve, though single readings scatter; the % refers to the signal ratio. Potencies of inconclusive entries are doubtful fits and often do not repeat.

Assay: qHTS Assay for Lipid Storage Modulators in Drosophila S3 Cells
Details: BODIPY lipid droplet fluorescence, 18-24 h, cells fed with added oleic acid; lipid storage change, negative = inhibition: at 46.1 µM (top of the series) unless noted
Summary of the method: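 Drosophila S3 cells loaded with oleic acid (400 uM, as added) and compounds at several concentrations; lipid droplets imaged by 488-nm laser-scanning cytometry, 500–530 nm intensity and object ratio to cell channel. Percent activity normalized to 20 uM Triacsin C.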
% is set by controls: 0 for no effect and ±100 for the full control effect; potency is the fitted concentration of half-maximal effect.

Q: Which lipid storage change, negative = inhibition does the source give for `COC(=O)CCC(=O)NC(=S)Nc1cc(Cl)ccc1Cl` here?
A: inconclusive: -104%

Q: For `O=C(CSc1nc2[nH]c(=O)[nH]c(=O)c2s1)Nc1cccc(F)c1`, which lipid storage change, negative = inhibition is on record?
A: inconclusive: -1.81%

Q: With `O=C(C1CCCN(Cc2ccccc2F)C1)N1CCCCC1` (stereo unspecified) as the compound, how does the lipid storage change, negative = inhibition read?
A: inconclusive: -15.5%

Q: For `Cc1cccc(C(C)(C)C)c1OCCn1ccnc1`, which Potency is on record?
A: inconclusive: 1.16 µM [rising, full curve, poor fit]

Q: For `Cc1ccc(NC(=O)COC(=O)c2csc3c2CCC(C)C3)cc1S(=O)(=O)N1CCCCC1` (stereo unspecified), which lipid storage change, negative = inhibition is on record?
A: inconclusive: 19.4%

Q: Which lipid storage change, negative = inhibition does the source give for `COc1ccc(-c2cn[nH]c2-c2ccc(O)cc2O)cc1OC` here?
A: inconclusive: -2.43%

Q: Which lipid storage change, negative = inhibition does the source give for `COc1ccc(/C=N/n2c(C)nc3sc(C)c(C)c3c2=O)cc1` here?
A: inconclusive: -2.2%

Q: Which Potency does the source give for `N#Cc1c(N)n(C2CCCCC2)c2nc3ccccc3nc12` here?
A: inconclusive: 13 µM [falling, partial curve]

Q: With `CC(=O)c1ccc2c3c(ccc(O)c13)CC2` as the compound, how does the Potency read?
A: inconclusive: 4.61 µM [activator, partial curve]

Q: With `CC1(C)NC(=O)N(CC(=O)N2CCN(c3cccc(C(F)(F)F)c3)CC2)C1=O` as the compound, how does the lipid storage change, negative = inhibition read?
A: inconclusive: 15.8%

Q: For `O=C(CCN1C(=O)/C(=C\c2cccc(Br)c2)SC1=S)NCCCN1CCOCC1`, which Potency is on record?
A: inconclusive: 25.9 µM [activator, partial curve, poor fit]

Q: For `CS(=O)(=O)N(CC(=O)NC1CC2CCC1C2)c1ccc(Oc2ccccc2)cc1` (stereo unspecified), which lipid storage change, negative = inhibition is on record?
A: inconclusive: -25.3%

Q: With `COc1ccc(NC(=O)COC(=O)c2cc(OC)c(OC)c(OC)c2)c([N+](=O)[O-])c1` as the compound, how does the lipid storage change, negative = inhibition read?
A: inconclusive: 7.17%

Q: Which lipid storage change, negative = inhibition does the source give for `COc1ccc(CNC(=O)c2cc(-n3cnnc3)ccc2Cl)cc1` here?
A: inconclusive: -38%

Q: Which Potency does the source give for `COc1cccc(NC(=O)CSc2nnnn2C2CCCC2)c1` here?
A: active: 8.2 µM

Q: Which lipid storage change, negative = inhibition does the source give for `COC(=O)C1CCN(C(=O)COc2ccc(Cl)cc2)CC1` here?
A: inconclusive: -3.27%

Q: Which Potency does the source give for `O=C(O)CN1C(=O)/C(=C\c2cccc(OC(=O)c3ccco3)c2)SC1=S` here?
A: inconclusive: 29.1 µM [activator, single point]

Q: With `COc1cc(CNc2ccc(NC(C)=O)cc2)ccc1OCc1ccccc1C` as the compound, how does the lipid storage change, negative = inhibition read?
A: inconclusive: 16.2%

Q: With `NCC12CC3CC(C1)CC(c1ccc(Br)cc1)(C3)C2` as the compound, how does the lipid storage change, negative = inhibition read?
A: inconclusive: 12.8%

Q: With `Cc1ccc(-c2csc(Cc3nc(-c4cc5ccccc5oc4=O)cs3)n2)cc1` as the compound, how does the Potency read?
A: inconclusive: 29.1 µM [falling, single point]

Q: For `COC(=O)c1sccc1NC(=O)CC1C(=O)NCCN1C(=O)c1ccc(N(C)C)cc1` (stereo unspecified), which lipid storage change, negative = inhibition is on record?
A: inconclusive: 1.26%

Q: With `N/C(Cc1cccc2ccccc12)=N\OC(=O)c1ccccc1F` as the compound, how does the Potency read?
A: inconclusive: 4.11 µM [falling, single point]

Q: For `Cc1cccn2c(=O)nc(SCC(=O)N3CCN(c4ccccc4)CC3)nc12`, which Potency is on record?
A: inconclusive: 0.259 µM [activator, full curve, poor fit]

Q: Which lipid storage change, negative = inhibition does the source give for `O=C(CNS(=O)(=O)c1ccc(F)c(Cl)c1)N1CCCC1` here?
A: inconclusive: 35.6%

Q: With `CSc1ncc(Cl)c(C(=O)Nc2nnc(SC/C=C/c3ccccc3)s2)n1` as the compound, how does the Potency read?
A: inconclusive: 29.1 µM [falling, single point]

Q: For `CC(=O)O[C@H](CC(=O)O)C[N+](C)(C)C`, which lipid storage change, negative = inhibition is on record?
A: inconclusive: -28.4%

Q: Which Potency does the source give for `CCOC(=O)c1c(C)nc2sc3c(c2c1-c1ccc(OC)cc1)NC(c1ccccc1)NC3=O` (stereo unspecified) here?
A: inconclusive: 29.1 µM [falling, single point]

Q: For `CCCCN(C(=O)c1cc2ccccc2o1)c1c(N)n(CC(C)C)c(=O)[nH]c1=O`, which lipid storage change, negative = inhibition is on record?
A: inconclusive: -1.5%

Q: For `CCOC(=O)c1cc(C)n(Cc2ccccc2)c1C`, which Potency is on record?
A: inconclusive: 6.51 µM [activator, single point]

Q: With `COc1cc(NC(=O)CSc2nnc(C)s2)cc(OC)c1` as the compound, how does the lipid storage change, negative = inhibition read?
A: inconclusive: -2.37% [at 9.22 µM]

Q: For `CCn1c(SCC(=O)OC2CCCCC2)nnc1-c1ccncc1`, which lipid storage change, negative = inhibition is on record?
A: inconclusive: -0.386%

Q: With `Cc1nnc(NC(=O)c2cccc(S(=O)(=O)N3CCN(C)CC3)c2)s1` as the compound, how does the Potency read?
A: inconclusive: 7.31 µM [activator, partial curve, poor fit]

Q: With `COc1ccc(NC(=O)c2cccnc2SC)cc1S(=O)(=O)N1CCCCC1` as the compound, how does the Potency read?
A: inconclusive: 14.6 µM [activator, partial curve, poor fit]

Q: Which Potency does the source give for `O=C(CN(Cc1ccc(F)cc1)C(=O)CCC(=O)Nc1nccs1)NCc1ccc(F)cc1` here?
A: inconclusive: 29.1 µM [activator, single point]

Q: Which Potency does the source give for `O=C(OCC(=O)N1CCCC1)c1ccc(S(=O)(=O)N2CCOCC2)cc1` here?
A: inconclusive: 18.4 µM [falling, partial curve]

Q: For `CCCCCc1ccc(-c2cn(Cc3cccc(OC)c3)nn2)cc1`, which lipid storage change, negative = inhibition is on record?
A: inconclusive: -33.8%

Q: With `CCCCCC(=O)Nc1nnc(CCc2ccccc2)s1` as the compound, how does the Potency read?
A: inconclusive: 29.1 µM [activator, single point]

Q: For `O=C(NC1CCCCCC1)C1CCCN(S(=O)(=O)c2cnc[nH]2)C1` (stereo unspecified), which lipid storage change, negative = inhibition is on record?
A: inconclusive: 9.16%

Q: With `CN1c2ccccc2N(C)C1c1c(O)ccc2ccccc12` as the compound, how does the lipid storage change, negative = inhibition read?
A: inconclusive: 8.37%

Q: With `O=C(NCCN1C(=O)S/C(=C/c2ccccc2)C1=O)C1CC(=O)N(Cc2ccccc2)C1` (stereo unspecified) as the compound, how does the Potency read?
A: inconclusive: 29.1 µM [falling, single point]

Q: With `O=c1ccc2cc(S(=O)(=O)N3CCN(c4ccccc4F)CC3)ccc2o1` as the compound, how does the Potency read?
A: inconclusive: 1.16 µM [falling, partial curve, poor fit]

Q: With `Cc1nn(Cc2ccccc2)c(C)c1/C=N/NC(=O)CNc1cccc(C(F)(F)F)c1` as the compound, how does the Potency read?
A: inconclusive: 29.1 µM [falling, single point]

Q: Which lipid storage change, negative = inhibition does the source give for `CC(OC(=O)c1nn(C)c(=O)c2ccccc12)C(=O)Nc1ccc(S(N)(=O)=O)cc1` (stereo unspecified) here?
A: inconclusive: 19.4%

Q: Which Potency does the source give for `CC(C)Cn1c(=O)c2ccccc2c2ccccc2c1=O` here?
A: inconclusive: 20.6 µM [activator, single point]

Q: Which lipid storage change, negative = inhibition does the source give for `Cc1cccc(N(Cc2ccccc2)C(=O)Cc2ccc(S(=O)(=O)N3CCOCC3)s2)c1` here?
A: inconclusive

Q: For `Cc1cccc(C)c1NC(=O)CN(C)C(=O)C1CC(=O)N(c2cccc3ccccc23)C1` (stereo unspecified), which lipid storage change, negative = inhibition is on record?
A: inconclusive: 8.79%
